Test [1] concerns the target NQO2 (Genbank ID: J02888) (human) (UniProt P16083). As to the kind of experiment: Y2H 1x1 mating, binder AD fusion, target BD fusion.
For test [2], the target named is T1, S100B-2 (human) (UniProt P04271).
T1 sequence (looked up): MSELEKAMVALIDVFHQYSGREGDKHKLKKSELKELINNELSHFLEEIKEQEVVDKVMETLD
As to the kind of experiment: Y2H 1x1 mating, binder AD fusion, target BD fusion.

Sequences of proteins named here, by UniProt entry; tags and fusion partners are left off. A change or cut given only in a name is not applied to a line headed by its entry. Residues count along the entry.
UniProt P16083: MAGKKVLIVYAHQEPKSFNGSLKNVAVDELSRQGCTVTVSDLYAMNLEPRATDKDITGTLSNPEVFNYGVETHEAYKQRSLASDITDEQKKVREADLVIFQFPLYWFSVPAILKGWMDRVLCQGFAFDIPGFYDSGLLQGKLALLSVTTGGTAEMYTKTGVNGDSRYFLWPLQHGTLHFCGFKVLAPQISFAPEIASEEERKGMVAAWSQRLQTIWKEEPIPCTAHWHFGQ
UniProt Q93050, residues 1-300: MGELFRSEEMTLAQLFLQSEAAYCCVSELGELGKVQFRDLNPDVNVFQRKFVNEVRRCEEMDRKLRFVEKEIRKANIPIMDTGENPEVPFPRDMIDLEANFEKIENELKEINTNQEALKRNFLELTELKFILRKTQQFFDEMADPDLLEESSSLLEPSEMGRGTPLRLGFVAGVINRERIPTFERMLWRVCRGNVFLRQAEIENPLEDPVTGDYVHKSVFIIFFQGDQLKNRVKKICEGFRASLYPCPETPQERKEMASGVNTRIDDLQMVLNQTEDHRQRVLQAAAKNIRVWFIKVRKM

In test [3] the target is T2, FHOS (Genbank ID: AF113615) (human) (UniProt Q9Y613).
T2 sequence (looked up): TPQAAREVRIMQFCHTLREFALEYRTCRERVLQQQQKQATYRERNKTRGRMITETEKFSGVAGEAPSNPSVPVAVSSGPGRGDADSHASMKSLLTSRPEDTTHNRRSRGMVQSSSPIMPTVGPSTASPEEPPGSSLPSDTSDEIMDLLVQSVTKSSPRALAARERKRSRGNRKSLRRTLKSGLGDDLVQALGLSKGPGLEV
Briefly: Y2H 1x1 mating, binder AD fusion, target BD fusion.

Test [4] concerns the target T3, S100A9 (Genbank ID: M26311) (human) (UniProt P06702).
T3 sequence (looked up): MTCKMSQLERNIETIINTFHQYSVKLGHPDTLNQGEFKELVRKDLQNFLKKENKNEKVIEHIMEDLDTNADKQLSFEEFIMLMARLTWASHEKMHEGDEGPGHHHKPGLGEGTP
Briefly: Y2H 1x1 mating, binder AD fusion, target BD fusion.

Test [5] has as its target T4, S100B-1 (human) (UniProt P04271).
T4 sequence (looked up): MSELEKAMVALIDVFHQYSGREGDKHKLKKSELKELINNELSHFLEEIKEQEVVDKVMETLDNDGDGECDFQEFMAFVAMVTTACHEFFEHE
As to the kind of experiment: Y2H 1x1 mating, binder AD fusion, target BD fusion.

Test [6] concerns the target T1, S100B-2 (human). Briefly: Y2H 1x1 mating, binder BD fusion, target AD fusion.
Test [7] concerns the target T4, S100B-1 (human). Briefly: Y2H 1x1 mating, binder BD fusion, target AD fusion.
Test [8] has as its target ATPase (ATP6N1) (Genbank ID: u73006) (human) (UniProt Q93050). As to the kind of experiment: Y2H 1x1 mating, binder AD fusion, target BD fusion.

Results are given in words; binding and its absence hold for the method and conditions named. For part of these data: A result given as binding can be weak or reduced; the word gives no strength.

In the case of “ATPase (ATP6N1) (Genbank ID: u73006) (from UniProt Q93050 1-300)”, the binding result in test [1] is “no binding”.
As to “Fibrinogen (Genbank ID: M58569), S100B interactor (human)”, the binding entry with S100B-2 (human) [2] is reported as “binds”; in test [3] it was “no binding”; in test [4], “no binding”; with S100B-1 (human) [5] it was “no binding”; with S100B-2 (human) [6], “binds”; in the test with S100B-1 (human) [7] it was “no binding”.
Take “NQO2 (Genbank ID: J02888) (from UniProt P16083) (enzyme)”: the binding entry (in test [3]; in test [4]; in test [8]; in the test with S100B-1 (human) [5]; with S100B-1 (human) [7]) was “no binding” throughout.

(Values after US20030157554A1.)
